For four substances, binding results are on record in PMC3149661.

Sequences of proteins named here, by UniProt entry; tags and fusion partners are left off. A change or cut given only in a name is not applied to a line headed by its entry. A line that says so, or that is headed by a name, gives the form on record, which may keep a tag or linker.
UniProt Q14457: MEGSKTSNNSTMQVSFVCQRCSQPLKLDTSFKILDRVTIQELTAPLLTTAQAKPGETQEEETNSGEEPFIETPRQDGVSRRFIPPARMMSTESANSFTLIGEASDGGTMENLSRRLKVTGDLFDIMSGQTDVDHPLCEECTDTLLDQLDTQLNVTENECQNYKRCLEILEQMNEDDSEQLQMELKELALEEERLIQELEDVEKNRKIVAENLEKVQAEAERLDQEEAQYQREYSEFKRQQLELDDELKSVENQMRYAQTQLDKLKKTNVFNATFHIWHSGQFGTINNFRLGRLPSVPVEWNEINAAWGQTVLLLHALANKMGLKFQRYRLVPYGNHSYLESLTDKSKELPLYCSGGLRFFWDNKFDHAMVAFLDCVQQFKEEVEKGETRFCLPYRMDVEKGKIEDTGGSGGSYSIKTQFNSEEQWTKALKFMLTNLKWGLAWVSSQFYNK
UniProt P10415: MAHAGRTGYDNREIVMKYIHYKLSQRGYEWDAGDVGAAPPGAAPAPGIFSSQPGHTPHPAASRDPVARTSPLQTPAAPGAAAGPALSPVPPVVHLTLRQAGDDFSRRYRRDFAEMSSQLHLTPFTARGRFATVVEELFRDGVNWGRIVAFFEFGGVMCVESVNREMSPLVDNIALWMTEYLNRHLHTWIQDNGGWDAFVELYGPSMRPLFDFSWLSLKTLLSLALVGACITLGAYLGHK
nonphosphorylatable Myc-Bcl-2 (AAA Myc-Bcl-2) (P10415, form named): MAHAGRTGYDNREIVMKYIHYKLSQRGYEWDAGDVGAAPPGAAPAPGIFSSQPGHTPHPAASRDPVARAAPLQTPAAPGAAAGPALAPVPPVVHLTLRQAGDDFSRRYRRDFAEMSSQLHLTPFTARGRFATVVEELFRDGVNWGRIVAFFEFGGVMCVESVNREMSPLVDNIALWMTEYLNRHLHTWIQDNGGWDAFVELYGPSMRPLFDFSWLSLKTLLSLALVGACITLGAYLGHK

Experiment [1] concerns the target Flag-tagged Beclin 1 (UniProt Q14457). The experiment can be described thus: co-IP; cells expressing Flag-Beclin 1 and Bcl-2 or C229A Bcl-2, with or without NO donors; method read from the text, the legends of Figures S2C and S2D were not shown.
Experiment [2] has the same target. The experiment can be described thus: co-IP; HeLa cells transfected with Flag-Beclin 1 (or empty Flag) and the partner; immunoprecipitation with anti-Flag M2 affinity agarose gel; immunoblotting with anti-Myc or anti-Vps34 antibody; cells untreated or treated with NO donors. (A western blot detects proteins with antibodies after separation by electrophoresis.)

No constants are given. Whether binding was seen depends on the method and setting. In cells and extracts the contact can be indirect. Some binding calls cover weakened binding; strength is not graded here.

As to C229A Bcl-2 (from UniProt P10415 1-239), the binding entry with Flag-tagged Beclin 1 [1] is reported as “binds”.

For the substance “nonphosphorylatable Myc-Bcl-2 (AAA Myc-Bcl-2) (from UniProt P10415 1-239)”, the binding result with Flag-tagged Beclin 1 [2] is “binds”.

Bcl-2 (from UniProt P10415 1-239): in the experiment with Flag-tagged Beclin 1 [1], the binding result is on record as “binds”.

“Myc-tagged Bcl-2 (from UniProt P10415 1-239)”: in the experiment with Flag-tagged Beclin 1 [2], the binding entry is given as “binds”.
